In PMC10353822:
Results are given in words; binding and its absence hold for the method and conditions named. In cells and extracts the contact can be indirect. Some entries that bind do so weakly or less than the wild type. For some assays here: Sequences can lack the tags named with a protein.

B1: TRIM28 (endogenous), Q13263 1-835 (protein)
chain: MAASAAAASAAAASAASGSPGPGEGSAGGEKRSTAPSAAASASASAAASSPAGGGAEALELLEHCGVCRERLRPEREPRLLPCLHSACSACLGPAAPAAANSSGDGGAAGDGTVVDCPVCKQQCFSKDIVENYFMRDSGSKAATDAQDANQCCTSCEDNAPATSYCVECSEPLCETCVEAHQRVKYTKDHTVRSTGPAKSRDGERTVYCNVHKHEPLVLFCESCDTLTCRDCQLNAHKDHQYQFLEDAVRNQRKLLASLVKRLGDKHATLQKSTKEVRSSIRQVSDVQKRVQVDVKMAILQIMKELNKRGRVLVNDAQKVTEGQQERLERQHWTMTKIQKHQEHILRFASWALESDNNTALLLSKKLIYFQLHRALKMIVDPVEPHGEMKFQWDLNAWTKSAEAFGKIVAERPGTNSTGPAPMAPPRAPGPLSKQGSGSSQPMEVQEGYGFGSGDDPYSSAEPHVSGVKRSRSGEGEVSGLMRKVPRVSLERLDLDLTADSQPPVFKVFPGSTTEDYNLIVIERGAAAAATGQPGTAPAGTPGAPPLAGMAIVKEEETEAAIGAPPTATEGPETKPVLMALAEGPGAEGPRLASPSGSTSSGLEVVAPEGTSAPGGGPGTLDDSATICRVCQKPGDLVMCNQCEFCFHLDCHLPALQDVPGEEWSCSLCHVLPDLKEEDGSLSLDGADSTGVVAKLSPANQRKCERVLLALFCHEPCRPLHQLATDSTFSLDQPGGTLDLTLIRARLQEKLSPPYSSPQEFAQDVGRMFKQFNKLTEDKADVQSIIGLQRFFETRMNEAFGDTKFSAVLVEPPPMSLPGAGLSSQELSGGPGDGP
B2: TRIM24 (endogenous), O15164 1-1050 (protein)
chain: MEVAVEKAVAAAAAASAAASGGPSAAPSGENEAESRQGPDSERGGEAARLNLLDTCAVCHQNIQSRAPKLLPCLHSFCQRCLPAPQRYLMLPAPMLGSAETPPPVPAPGSPVSGSSPFATQVGVIRCPVCSQECAERHIIDNFFVKDTTEVPSSTVEKSNQVCTSCEDNAEANGFCVECVEWLCKTCIRAHQRVKFTKDHTVRQKEEVSPEAVGVTSQRPVFCPFHKKEQLKLYCETCDKLTCRDCQLLEHKEHRYQFIEEAFQNQKVIIDTLITKLMEKTKYIKFTGNQIQNRIIEVNQNQKQVEQDIKVAIFTLMVEINKKGKALLHQLESLAKDHRMKLMQQQQEVAGLSKQLEHVMHFSKWAVSSGSSTALLYSKRLITYRLRHLLRARCDASPVTNNTIQFHCDPSFWAQNIINLGSLVIEDKESQPQMPKQNPVVEQNSQPPSGLSSNQLSKFPTQISLAQLRLQHMQQQVMAQRQQVQRRPAPVGLPNPRMQGPIQQPSISHQQPPPRLINFQNHSPKPNGPVLPPHPQQLRYPPNQNIPRQAIKPNPLQMAFLAQQAIKQWQISSGQGTPSTTNSTSSTPSSPTITSAAGYDGKAFGSPMIDLSSPVGGSYNLPSLPDIDCSSTIMLDNIVRKDTNIDHGQPRPPSNRTVQSPNSSVPSPGLAGPVTMTSVHPPIRSPSASSVGSRGSSGSSSKPAGADSTHKVPVVMLEPIRIKQENSGPPENYDFPVVIVKQESDEESRPQNANYPRSILTSLLLNSSQSSTSEETVLRSDAPDSTGDQPGLHQDNSSNGKSEWLDPSQKSPLHVGETRKEDDPNEDWCAVCQNGGELLCCEKCPKVFHLSCHVPTLTNFPSGEWICTFCRDLSKPEVEYDCDAPSHNSEKKKTEGLVKLTPIDKRKCERLLLFLYCHEMSLAFQDPVPLTVPDYYKIIKNPMDLSTIKKRLQEDYSMYSKPEDFVADFRLIFQNCAEFNEPDSEVANAGIKLENYFEELLKNLYPEKRFPKPEFRNESEDNKFSDDSDDDFVQPRKKRLKSIEERQLLK

Tests used:
Details in all cases: remark: other sources report otherwise
[1] = molecular target: T1, TRIM33 (endogenous) (human (endogenous in AGS, 293T, NPC43 and Akata cells)), Q9UPN9; assay: co-IP; IP of endogenous TRIM33 (antibody on protein A/G agarose, overnight at 4°C, RIPA buffer) from 293T cells transfected with pPL17-BZLF1 or empty vector, 24 h; Western blot for TRIM24, TRIM28, TRIM33
T1 chain: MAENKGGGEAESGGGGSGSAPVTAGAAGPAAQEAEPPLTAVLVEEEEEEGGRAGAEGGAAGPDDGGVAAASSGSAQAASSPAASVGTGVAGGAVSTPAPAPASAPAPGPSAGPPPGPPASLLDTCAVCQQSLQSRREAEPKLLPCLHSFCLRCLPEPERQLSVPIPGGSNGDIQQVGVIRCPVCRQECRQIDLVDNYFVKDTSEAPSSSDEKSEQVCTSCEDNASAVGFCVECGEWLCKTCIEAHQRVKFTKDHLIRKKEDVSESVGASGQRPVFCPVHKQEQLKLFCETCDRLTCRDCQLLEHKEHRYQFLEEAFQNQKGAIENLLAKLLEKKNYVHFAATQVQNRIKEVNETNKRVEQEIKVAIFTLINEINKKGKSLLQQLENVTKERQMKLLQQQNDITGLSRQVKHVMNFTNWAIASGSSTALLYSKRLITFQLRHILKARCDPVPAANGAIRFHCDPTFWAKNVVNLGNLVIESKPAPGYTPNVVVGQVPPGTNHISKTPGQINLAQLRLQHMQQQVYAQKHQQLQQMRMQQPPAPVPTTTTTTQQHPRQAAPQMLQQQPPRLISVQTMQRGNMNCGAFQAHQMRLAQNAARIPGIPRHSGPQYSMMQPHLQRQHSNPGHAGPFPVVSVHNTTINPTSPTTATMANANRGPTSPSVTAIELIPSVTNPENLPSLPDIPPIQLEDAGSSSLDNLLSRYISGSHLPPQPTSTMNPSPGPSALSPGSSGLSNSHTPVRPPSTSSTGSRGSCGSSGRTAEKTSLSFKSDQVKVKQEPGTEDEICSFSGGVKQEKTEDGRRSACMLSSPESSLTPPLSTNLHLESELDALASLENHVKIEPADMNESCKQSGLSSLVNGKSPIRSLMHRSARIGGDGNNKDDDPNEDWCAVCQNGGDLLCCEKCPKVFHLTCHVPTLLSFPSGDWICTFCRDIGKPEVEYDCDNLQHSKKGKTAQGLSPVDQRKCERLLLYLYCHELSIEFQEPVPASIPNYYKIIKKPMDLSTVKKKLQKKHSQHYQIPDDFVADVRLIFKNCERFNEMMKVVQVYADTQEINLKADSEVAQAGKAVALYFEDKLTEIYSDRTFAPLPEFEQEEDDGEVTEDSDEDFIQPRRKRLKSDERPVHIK

[2] = molecular target: T2, TRIM33 with C-terminal FLAG, Q9UPN9; assay: co-IP; TRIM33-FLAG expressed in AGS-EBV cells, reactivated with 3 mM sodium butyrate and 20 ng/ml TPA for 24 h; anti-FLAG M2 magnetic beads overnight at 4°C; modified RIPA buffer with 300 mM NaCl; Western blot
T2 chain: T1 chain

[3] = molecular target: T1, TRIM33 (endogenous) (human (endogenous …)); assay: co-IP; IP of endogenous TRIM33 (anti-TRIM33 Cell Signaling #90051, 16 h at 4°C, Protein A magnetic beads, RIPA buffer) from NPC43-Z and Akata-Z cells before or 24 h after dox (EBV reactivation); Western blot for TRIM24, TRIM28, TRIM33

Binder | binding [1] | binding [2] | binding [3]
B1 | binds | binds | binds
B2 |  | binds | binds
